{"source": "PubChem BioAssay AID1347076", "about": "(National Center for Advancing Translational Sciences (NCATS), 2019)", "note": "Screen size: about 400,000 compounds; about 13,000 (3.2%) were called active. This list was built around the results that the source calls inconclusive (neither active nor inactive); the mix of calls is not that of the screen. Calls come from the whole dose curve; as a rule, active = well fitted cell-killing curve with a large enough effect; inconclusive = small, poorly fitted or top-dose-only effect, or effect the other way; inactive = flat fitted curve, though single readings scatter. Potencies beside an inconclusive call are fits to weak or partial responses and may not hold up. % is set by controls: 0 for no effect and ±100 for the full control effect; potency is the fitted concentration of half-maximal effect.", "data": [{"assay": "qHTS assay for MDR1-selective chemotherapeutics: Primary screen using the drug-selected MDR subline cells KB-V1; note: nearly all actives have a fitted effect of over 60% in size", "conditions": "KB-V1 MDR cells viability, CellTiter-Glo, 72 h; activity change, negative = cytotoxicity: at 46.1 µM (top of the series)", "procedure,_shortened": "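Cytotoxicity via CellTiter-Glo luminescence after 72 h compound exposure at 37 degrees C. Cells: drug-selected KB-V1 line, DMEM phenol-red free plus 10% FBS. Compounds tested at multiple concentrations; normalized data fitted to concentration-effect curves.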", "values": [{"smiles": "CC(=O)c1c(C)[nH]c(C(=O)CSc2nc3ccc(C)cc3[nH]2)c1C", "Potency": "inconclusive: 16.4 µM [cytotoxic, single point]"}, {"smiles": "NCCNC(=O)c1c(O)c2cccc3c2n(c1=O)CCC3", "Potency": "inconclusive: 29.1 µM [cytotoxic, single point]"}, {"smiles": "O=C(CC1OC(=O)c2ccccc21)Nc1cccc(S(=O)(=O)N2CCCCCC2)c1", "note": "(stereo not drawn)", "Potency": "inconclusive: 23.1 µM [cytotoxic, single point]"}, {"smiles": "Cc1ccc(C(=O)NC(=S)Nc2ccc(N3CCOCC3)cc2)c(C)c1", "Potency": "inconclusive: 29.1 µM [cytotoxic, single point]"}, {"smiles": "CC(NC(=O)COC(=O)c1cccnc1Cl)C12CC3CC(CC(C3)C1)C2", "note": "(stereo not drawn)", "Potency": "inconclusive: 20.6 µM [cytotoxic, partial curve, poor fit]"}, {"smiles": "O=C(COC(=O)COc1cccc(C(F)(F)F)c1)NC(=O)NC1CCCCC1", "activity change, negative = cytotoxicity": "inactive: -6.48%"}, {"smiles": "C=Cc1ccc(Cn2c(C)c(C(=O)NCCC#N)sc2=O)cc1", "Potency": "inconclusive: 20.6 µM [cytotoxic, single point]"}, {"smiles": "CCCOc1ccc(NC(=O)C2CC(=O)N/C(=N/N=C(C)/C=C/c3ccc(N(C)C)cc3)S2)cc1", "note": "(stereo not drawn)", "Potency": "active: 16.4 µM"}, {"smiles": "CCC1=C(c2ccc(C)cc2)S(=O)(=O)N=C1N1CCC(C(=O)NCc2ccccc2Cl)CC1", "activity change, negative = cytotoxicity": "inactive: -19.7%"}, {"smiles": "NC(=O)C1CCN(C(=O)c2ccc(F)c(S(=O)(=O)N3CCOCC3)c2)CC1", "Potency": "inconclusive: 29.1 µM [rising, single point]"}, {"smiles": "C=C(C)c1cccc(C(C)(C)NC(=O)Nc2cc(C)ccn2)c1", "Potency": "active: 16.4 µM"}, {"smiles": "COc1ccc(OC)c(S(=O)(=O)Nc2ccc(Oc3ccccc3)cc2)c1", "Potency": "active: 20.6 µM"}, {"smiles": "O=C(COC(=O)c1ccc[nH]c1=O)NCC12CC3CC(CC(C3)C1)C2", "Potency": "inconclusive: 10.3 µM [rising, partial curve, poor fit]"}, {"smiles": "Clc1ccccc1N=C1NN=C(c2cccs2)CS1", "Potency": "inconclusive: 29.1 µM [cytotoxic, single point]"}, {"smiles": "CCCCCCCCOC(=O)C[N+](C)(C)C/C=C(/C)Cl", "Potency": "inconclusive: 16.4 µM [rising, single point]"}, {"smiles": "COc1ccc(CN(Cc2cccnc2)S(=O)(=O)c2ccc(-n3cnnn3)c(C)c2)cc1OC", "Potency": "inconclusive: 0.366 µM [cytotoxic, partial curve, poor fit]"}, {"smiles": "NS(=O)(=O)c1cccc(NC(=O)CSc2nnc(-c3ccccc3F)n2C2CC2)c1", "Potency": "inconclusive: 18.4 µM [rising, partial curve, poor fit]"}, {"smiles": "NC(=O)C1(N2CCCCC2)CCN(C(=O)c2cc(COc3c(F)cccc3F)on2)CC1", "Potency": "inconclusive: 18.4 µM [cytotoxic, single point]"}]}]}
